This assay concerns the target T1, alpha-B crystallin (CRYAB) (human (endogenous in BMSCs)) (UniProt P02511).
T1 sequence: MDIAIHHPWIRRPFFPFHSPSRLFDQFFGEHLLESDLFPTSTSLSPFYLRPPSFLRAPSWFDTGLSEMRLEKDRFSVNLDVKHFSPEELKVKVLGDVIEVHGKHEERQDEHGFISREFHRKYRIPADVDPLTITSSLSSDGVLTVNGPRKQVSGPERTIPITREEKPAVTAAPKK
Nature of the assay: co-IP; lysates of BMSCs stimulated with PLGA or P20F scaffolds for 24 h; anti-CRYAB antibody overnight at 4 °C, Pierce Magnetic IP/Co-IP Kit; blots with anti-CRYAB and anti-β-catenin.

The chains behind the UniProt entries cited, without tags or fusion partners.
UniProt P35222: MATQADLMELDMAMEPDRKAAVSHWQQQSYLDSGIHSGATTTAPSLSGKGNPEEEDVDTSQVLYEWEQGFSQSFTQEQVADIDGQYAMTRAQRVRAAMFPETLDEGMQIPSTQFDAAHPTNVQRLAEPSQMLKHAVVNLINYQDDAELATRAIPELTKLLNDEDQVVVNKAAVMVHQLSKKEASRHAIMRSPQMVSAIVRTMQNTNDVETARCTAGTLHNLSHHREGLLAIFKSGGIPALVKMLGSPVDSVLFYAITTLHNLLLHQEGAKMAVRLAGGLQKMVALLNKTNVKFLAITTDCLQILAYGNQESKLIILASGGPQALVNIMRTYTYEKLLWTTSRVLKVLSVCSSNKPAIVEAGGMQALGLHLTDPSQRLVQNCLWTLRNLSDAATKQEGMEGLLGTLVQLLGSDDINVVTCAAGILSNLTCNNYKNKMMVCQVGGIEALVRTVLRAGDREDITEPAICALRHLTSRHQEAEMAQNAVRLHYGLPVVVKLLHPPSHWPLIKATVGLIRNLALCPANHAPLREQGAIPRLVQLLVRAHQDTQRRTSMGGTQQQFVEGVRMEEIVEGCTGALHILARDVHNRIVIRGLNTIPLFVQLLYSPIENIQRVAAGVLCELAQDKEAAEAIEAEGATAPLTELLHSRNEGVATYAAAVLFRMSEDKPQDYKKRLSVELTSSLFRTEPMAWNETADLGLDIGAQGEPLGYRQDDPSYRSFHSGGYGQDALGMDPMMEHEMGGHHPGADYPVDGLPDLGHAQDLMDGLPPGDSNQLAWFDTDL

Binding data for one substance are collected here from PMC12593645.

Results are given in words; binding and its absence hold for the method and conditions named. Binding seen in cells or lysates may run through a third protein. Some entries that bind do so weakly or less than the wild type.

Turning to β-catenin (from UniProt P35222 1-781), the binding result is on record as “binds”.
